These results are taken from patent publication US20180201658A1 (MIT, published 2018).

Amino acid sequences for entries named in this document (tags omitted). Residues count along the entry.
UniProt Q07820, residues 172-327: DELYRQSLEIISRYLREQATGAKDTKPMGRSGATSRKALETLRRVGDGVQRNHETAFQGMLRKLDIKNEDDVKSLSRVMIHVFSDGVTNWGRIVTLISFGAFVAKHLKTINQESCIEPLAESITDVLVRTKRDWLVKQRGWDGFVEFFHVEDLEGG

This assay concerns the target human Mcl-1 (human) (UniProt Q07820). In words: solution binding of N-terminal fluorescein peptide (FIG. 1).

These are yes or no findings as the source states them, for the method shown. Some results given as binding are weak or reduced against the parent protein; the word gives no strength.

Regarding RPEIWMGQGLRRLGDEINAYYAR (N-terminal fluorescein) [A12 peptide with N-terminal fluorescein], the binding result is reported as “binds”. Under RPEIWLGQSLQRLGDEINAYYAR (N-terminal fluorescein) [B3 peptide with N-terminal fluorescein] stands “binds”.
